Source: publication doi:10.1101/2021.06.18.448975

Target: GFP-myosin VI short full-length
Assay: proximity ligation

binding: binds
B1: oral-facial-digital syndrome 1 (OFD1) protein (endogenous) (protein, UniProt O75665 1-1012)
chain: MMAQSNMFTVADVLSQDELRKKLYQTFKDRGILDTLKTQLRNQLIHELMHPVLSGELQPRSISVEGSSLLIGASNSLVADHLQRCGYEYSLSVFFPESGLAKEKVFTMQDLLQLIKINPTSSLYKSLVSGSDKENQKGFLMHFLKELAEYHQAKESCNMETQTSSTFNRDSLAEKLQLIDDQFADAYPQRIKFESLEIKLNEYKREIEEQLRAEMCQKLKFFKDTEIAKIKMEAKKKYEKELTMFQNDFEKACQAKSEALVLREKSTLERIHKHQEIETKEIYAQRQLLLKDMDLLRGREAELKQRVEAFELNQKLQEEKHKSITEALRRQEQNIKSFEETYDRKLKNELLKYQLELKDDYIIRTNRLIEDERKNKEKAVHLQEELIAINSKKEELNQSVNRVKELELELESVKAQSLAITKQNHMLNEKVKEMSDYSLLKEEKLELLAQNKLLKQQLEESRNENLRLLNRLAQPAPELAVFQKELRKAEKAIVVEHEEFESCRQALHKQLQDEIEHSAQLKAQILGYKASVKSLTTQVADLKLQLKQTQTALENEVYCNPKQSVIDRSVNGLINGNVVPCNGEISGDFLNNPFKQENVLARMVASRITNYPTAWVEGSSPDSDLEFVANTKARVKELQQEAERLEKAFRSYHRRVIKNSAKSPLAAKSPPSLHLLEAFKNITSSSPERHIFGEDRVVSEQPQVGTLEERNDVVEALTGSAASRLRGGTSSRRLSSTPLPKAKRSLESEMYLEGLGRSHIASPSPCPDRMPLPSPTESRHSLSIPPVSSPPEQKVGLYRRQTELQDKSEFSDVDKLAFKDNEEFESSFESAGNMPRQLEMGGLSPAGDMSHVDAAAAAVPLSYQHPSVDQKQIEEQKEEEKIREQQVKERRQREERRQSNLQEVLERERRELEKLYQERKMIEESLKIKIKKELEMENELEMSNQEIKDKSAHSENPLEKYMKIIQQEQDQESADKSSKKMVQEGSLVDTLQSSDKVESLTGFSHEELDDSW

No constants are given. Whether binding was seen depends on the method and setting. In cells and extracts the contact can be indirect. A result given as binding can be weak or reduced; the word gives no strength.
